Binding data for 2 substances are collected here from article PMC10666023.

Protein sequences, listed by entry. Tags and fused reporters are not part of them. Lines headed by an entry give the natural chain unless they say otherwise; changes in a name come on top.
UniProt Q6NZQ4: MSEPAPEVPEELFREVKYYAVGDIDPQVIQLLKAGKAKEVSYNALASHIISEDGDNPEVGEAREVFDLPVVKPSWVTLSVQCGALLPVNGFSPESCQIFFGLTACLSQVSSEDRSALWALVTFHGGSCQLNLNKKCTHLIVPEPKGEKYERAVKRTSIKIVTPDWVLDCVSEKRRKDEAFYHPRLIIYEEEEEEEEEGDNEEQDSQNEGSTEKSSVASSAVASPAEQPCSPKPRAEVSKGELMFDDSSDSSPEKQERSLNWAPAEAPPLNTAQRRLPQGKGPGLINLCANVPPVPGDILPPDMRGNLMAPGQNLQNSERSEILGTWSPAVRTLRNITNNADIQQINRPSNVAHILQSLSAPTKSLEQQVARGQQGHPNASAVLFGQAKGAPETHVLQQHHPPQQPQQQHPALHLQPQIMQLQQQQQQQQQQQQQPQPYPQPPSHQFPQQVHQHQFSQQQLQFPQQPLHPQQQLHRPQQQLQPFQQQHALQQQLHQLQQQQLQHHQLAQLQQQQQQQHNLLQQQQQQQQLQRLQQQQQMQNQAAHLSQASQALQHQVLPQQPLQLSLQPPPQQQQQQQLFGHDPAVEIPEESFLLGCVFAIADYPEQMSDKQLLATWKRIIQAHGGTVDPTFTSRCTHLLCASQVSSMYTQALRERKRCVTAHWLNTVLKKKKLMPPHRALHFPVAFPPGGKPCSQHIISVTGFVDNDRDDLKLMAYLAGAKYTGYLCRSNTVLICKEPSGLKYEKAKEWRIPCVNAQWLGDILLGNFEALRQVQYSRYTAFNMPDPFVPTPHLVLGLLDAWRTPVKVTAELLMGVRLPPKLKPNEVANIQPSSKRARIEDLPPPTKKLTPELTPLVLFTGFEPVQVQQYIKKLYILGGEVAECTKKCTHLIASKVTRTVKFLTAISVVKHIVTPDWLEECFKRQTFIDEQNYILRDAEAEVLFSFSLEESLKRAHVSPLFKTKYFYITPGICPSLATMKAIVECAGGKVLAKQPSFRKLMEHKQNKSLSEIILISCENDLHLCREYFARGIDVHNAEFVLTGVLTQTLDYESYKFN
UniProt Q9CWH4: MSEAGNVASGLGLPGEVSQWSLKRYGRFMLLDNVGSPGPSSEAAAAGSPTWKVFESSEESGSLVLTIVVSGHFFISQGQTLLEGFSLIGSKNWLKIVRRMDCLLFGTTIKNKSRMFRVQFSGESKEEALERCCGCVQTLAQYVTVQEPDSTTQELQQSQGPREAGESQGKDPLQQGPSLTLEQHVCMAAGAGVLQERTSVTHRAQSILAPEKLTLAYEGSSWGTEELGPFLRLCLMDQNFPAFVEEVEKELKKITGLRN
UniProt A0A140LI88: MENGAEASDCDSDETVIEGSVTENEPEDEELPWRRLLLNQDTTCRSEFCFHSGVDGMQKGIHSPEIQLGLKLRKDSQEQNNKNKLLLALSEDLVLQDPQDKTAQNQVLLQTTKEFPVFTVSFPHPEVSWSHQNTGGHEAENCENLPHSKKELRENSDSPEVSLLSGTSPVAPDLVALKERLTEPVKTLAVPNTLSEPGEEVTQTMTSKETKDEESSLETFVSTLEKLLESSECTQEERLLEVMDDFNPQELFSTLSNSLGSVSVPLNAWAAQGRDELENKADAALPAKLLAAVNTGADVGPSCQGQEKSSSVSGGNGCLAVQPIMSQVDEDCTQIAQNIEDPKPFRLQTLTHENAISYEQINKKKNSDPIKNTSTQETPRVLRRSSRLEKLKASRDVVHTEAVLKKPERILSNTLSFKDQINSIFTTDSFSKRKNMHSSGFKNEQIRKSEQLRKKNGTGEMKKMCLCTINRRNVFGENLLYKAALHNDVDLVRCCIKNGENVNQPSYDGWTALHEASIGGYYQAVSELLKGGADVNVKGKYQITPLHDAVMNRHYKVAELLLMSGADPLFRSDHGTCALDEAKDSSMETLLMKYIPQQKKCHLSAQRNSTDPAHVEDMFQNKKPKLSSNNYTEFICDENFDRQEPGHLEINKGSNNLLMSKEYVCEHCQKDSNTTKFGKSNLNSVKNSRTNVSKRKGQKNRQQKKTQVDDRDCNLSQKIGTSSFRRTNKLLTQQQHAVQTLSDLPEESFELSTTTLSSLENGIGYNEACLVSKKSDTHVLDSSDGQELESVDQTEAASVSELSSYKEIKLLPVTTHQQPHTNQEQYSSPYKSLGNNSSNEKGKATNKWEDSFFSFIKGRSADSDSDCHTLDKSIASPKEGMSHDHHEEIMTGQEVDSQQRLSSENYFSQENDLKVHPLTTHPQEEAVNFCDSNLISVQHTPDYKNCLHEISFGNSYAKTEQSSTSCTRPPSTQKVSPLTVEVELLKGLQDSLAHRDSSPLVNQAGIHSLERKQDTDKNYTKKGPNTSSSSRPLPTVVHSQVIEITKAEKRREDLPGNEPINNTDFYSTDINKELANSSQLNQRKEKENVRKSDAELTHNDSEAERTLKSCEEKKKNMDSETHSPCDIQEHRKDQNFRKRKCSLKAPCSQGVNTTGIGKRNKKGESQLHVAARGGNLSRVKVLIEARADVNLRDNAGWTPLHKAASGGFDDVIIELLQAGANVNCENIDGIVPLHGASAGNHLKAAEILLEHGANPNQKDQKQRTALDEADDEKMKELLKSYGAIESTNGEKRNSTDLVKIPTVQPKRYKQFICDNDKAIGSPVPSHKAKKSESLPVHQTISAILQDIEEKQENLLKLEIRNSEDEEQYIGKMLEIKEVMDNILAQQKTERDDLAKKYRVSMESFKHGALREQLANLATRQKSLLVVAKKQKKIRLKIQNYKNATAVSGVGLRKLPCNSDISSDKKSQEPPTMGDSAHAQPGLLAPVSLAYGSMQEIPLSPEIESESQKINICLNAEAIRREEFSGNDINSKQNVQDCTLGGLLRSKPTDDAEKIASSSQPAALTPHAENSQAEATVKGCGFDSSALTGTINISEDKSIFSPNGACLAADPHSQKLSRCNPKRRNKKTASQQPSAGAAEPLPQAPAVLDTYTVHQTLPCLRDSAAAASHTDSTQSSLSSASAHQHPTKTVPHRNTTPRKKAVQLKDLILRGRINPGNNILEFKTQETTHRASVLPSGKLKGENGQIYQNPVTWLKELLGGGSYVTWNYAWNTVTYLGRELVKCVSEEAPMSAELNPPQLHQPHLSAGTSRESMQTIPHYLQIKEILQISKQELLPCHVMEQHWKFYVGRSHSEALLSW

Results are given in words; binding and its absence hold for the method and conditions named. A result given as binding can be weak or reduced; the word gives no strength.

Experiment in all cases: two-hybrid; yeast two-hybrid of full-length ANKRD31 (wild type, EA, ΔC) as Gal4 AD and BD fusions with full-length or parts of REC114, MEI1, PTIP, ZMYM3; selection by amino acid dropouts and aureobasidin at moderate (+) and high (++) stringency
One assay has as its target T1, ZMYM3 (UniProt Q9JLM4).
T1 sequence: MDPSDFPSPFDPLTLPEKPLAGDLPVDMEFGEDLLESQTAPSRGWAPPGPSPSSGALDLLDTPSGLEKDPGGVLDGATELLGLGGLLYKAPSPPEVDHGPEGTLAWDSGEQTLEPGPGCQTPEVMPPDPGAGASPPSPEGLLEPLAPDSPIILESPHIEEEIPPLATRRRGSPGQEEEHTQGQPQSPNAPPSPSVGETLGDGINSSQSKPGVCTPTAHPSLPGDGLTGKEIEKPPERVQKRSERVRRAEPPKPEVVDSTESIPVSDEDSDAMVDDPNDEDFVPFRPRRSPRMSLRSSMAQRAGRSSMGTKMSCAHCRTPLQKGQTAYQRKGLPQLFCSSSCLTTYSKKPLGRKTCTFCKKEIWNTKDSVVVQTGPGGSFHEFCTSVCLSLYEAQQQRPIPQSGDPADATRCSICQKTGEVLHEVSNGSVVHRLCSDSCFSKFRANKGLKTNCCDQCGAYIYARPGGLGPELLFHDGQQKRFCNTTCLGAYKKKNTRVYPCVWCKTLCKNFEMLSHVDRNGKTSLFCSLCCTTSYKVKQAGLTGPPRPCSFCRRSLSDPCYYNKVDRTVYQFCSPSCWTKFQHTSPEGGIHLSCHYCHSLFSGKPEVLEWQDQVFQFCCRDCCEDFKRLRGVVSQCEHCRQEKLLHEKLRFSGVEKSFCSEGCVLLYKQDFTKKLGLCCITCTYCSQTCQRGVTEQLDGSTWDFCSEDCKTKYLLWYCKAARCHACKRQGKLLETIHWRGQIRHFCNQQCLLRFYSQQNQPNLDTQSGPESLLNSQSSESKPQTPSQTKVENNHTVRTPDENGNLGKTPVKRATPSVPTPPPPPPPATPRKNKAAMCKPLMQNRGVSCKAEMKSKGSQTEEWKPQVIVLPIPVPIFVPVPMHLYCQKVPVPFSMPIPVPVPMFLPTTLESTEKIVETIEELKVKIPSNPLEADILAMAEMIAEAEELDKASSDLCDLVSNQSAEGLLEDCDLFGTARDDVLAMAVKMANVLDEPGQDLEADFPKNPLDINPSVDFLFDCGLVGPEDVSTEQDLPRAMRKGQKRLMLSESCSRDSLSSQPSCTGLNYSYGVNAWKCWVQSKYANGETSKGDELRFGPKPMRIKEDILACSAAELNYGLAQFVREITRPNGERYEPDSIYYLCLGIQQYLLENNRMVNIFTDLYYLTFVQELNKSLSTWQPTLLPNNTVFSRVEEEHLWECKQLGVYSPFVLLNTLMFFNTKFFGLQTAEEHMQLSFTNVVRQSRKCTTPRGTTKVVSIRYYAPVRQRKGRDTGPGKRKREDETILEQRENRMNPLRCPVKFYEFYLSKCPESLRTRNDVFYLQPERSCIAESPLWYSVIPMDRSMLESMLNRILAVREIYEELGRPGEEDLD

The target of a further assay is T2, MEI1 (UniProt Q9D4I2).
T2 sequence: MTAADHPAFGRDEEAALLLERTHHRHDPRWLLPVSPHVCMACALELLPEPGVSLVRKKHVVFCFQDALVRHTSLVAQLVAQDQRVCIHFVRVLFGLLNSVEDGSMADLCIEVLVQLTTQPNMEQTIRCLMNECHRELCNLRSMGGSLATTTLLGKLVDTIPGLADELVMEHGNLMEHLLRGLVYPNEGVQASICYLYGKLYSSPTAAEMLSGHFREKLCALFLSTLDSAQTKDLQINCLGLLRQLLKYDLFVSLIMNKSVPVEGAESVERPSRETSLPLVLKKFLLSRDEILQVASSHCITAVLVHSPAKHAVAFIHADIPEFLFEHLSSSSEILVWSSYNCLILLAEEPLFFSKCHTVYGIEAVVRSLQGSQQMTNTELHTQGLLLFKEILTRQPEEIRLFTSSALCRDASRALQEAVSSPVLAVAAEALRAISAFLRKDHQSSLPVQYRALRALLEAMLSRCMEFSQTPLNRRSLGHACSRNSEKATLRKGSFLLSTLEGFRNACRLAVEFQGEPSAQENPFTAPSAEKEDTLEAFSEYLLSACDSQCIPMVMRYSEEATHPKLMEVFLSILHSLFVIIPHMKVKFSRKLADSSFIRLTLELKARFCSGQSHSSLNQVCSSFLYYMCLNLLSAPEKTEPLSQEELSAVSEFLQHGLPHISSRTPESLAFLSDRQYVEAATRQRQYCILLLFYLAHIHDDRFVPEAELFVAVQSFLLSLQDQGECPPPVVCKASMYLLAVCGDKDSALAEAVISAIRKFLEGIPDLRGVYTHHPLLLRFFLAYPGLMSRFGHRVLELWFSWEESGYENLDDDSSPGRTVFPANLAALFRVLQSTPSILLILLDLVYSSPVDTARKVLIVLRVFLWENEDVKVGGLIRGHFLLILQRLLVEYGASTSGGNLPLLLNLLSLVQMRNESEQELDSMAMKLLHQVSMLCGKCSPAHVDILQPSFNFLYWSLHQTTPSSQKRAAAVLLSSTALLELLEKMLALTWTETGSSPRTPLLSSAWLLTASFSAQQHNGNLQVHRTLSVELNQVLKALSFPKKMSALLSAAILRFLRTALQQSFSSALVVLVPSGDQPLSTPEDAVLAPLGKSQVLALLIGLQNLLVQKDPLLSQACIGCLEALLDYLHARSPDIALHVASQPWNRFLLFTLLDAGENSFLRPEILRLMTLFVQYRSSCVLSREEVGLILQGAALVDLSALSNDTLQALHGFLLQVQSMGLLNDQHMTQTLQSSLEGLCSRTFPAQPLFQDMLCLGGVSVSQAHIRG

The target of another assay is PTIP (UniProt Q6NZQ4).
For assay [1], the target named is REC114N, REC114 residues 1–158 (N-terminal pleckstrin homology domain) (mouse) (UniProt Q9CWH4).

On to “ANKRD31-ΔC, otherwise full-length ANKRD31 with the C-terminal frameshift truncation (from UniProt A0A140LI88)”, for which the binding result with ZMYM3 is recorded as “binds”; with MEI1, “binds”; with PTIP it was “binds”; in assay [1], “no binding”.
For “ANKRD31 (Ankyrin Repeat Domain Containing 31), full-length wild type (from UniProt A0A140LI88 1-1857)”, the binding result in assay [1] is given as “binds”.
